Data reported in patent publication EP3964511A1, “BIOORTHOGONAL CHOLESTEROL PROBE AND USES THEREOF” (Universidad del País Vasco/Euskal Herriko Unibertsitatea, priority 2020, dated 2022).

Tested on: plasma membrane of live SH-SY5Y cells
Assay: LIESS-FCS diffusion measurement in the plasma membrane
Type: cell-based, human

Structure (SMILES): CC(CCCN=[N+]=[N-])C1CCC2C3CC=C4CC(O)CCC4(C)C3CCC12C (centres unmarked) [chol-N3, 17-(5-azidopentan-2-yl)-10,13-dimethyl-2,3,4,7,8,9,10,11,12,13,14,15,16,17-tetradecahydro-1H-cyclopenta[a]phenanthren-3-ol]
- Drat (ratio between the diffusion coefficient by STED and confocal) (500 nm region where resident time is smaller in STED than in confocal mode (free diffusion)): ≈ 1
- Drat (ratio between the diffusion coefficient by STED and confocal) (zone where transit time is similar for STED and confocal spots (trapped state)): < 1
